Values quoted from earlier work, collected in patent publication US8591947B2, “Dual controlled release dosage form” (Osmotica Kereskedelmi és Szolgáltató KFT, priority 2001, dated 2013).

For CN1C(=O)C(O)N=C(c2ccccc2)c2cc(Cl)ccc21 (stereo not shown) [temazepan], the “Solubility of component in water (U.S.P. term)” value is listed as “very slightly soluble”.
